Source: the supplement of paper PMC10849652
Some of the results follow.

Sequences of proteins named here, by UniProt entry; tags and fusion partners are left off. A change or cut given only in a name is not applied to a line headed by its entry.
UniProt P48739: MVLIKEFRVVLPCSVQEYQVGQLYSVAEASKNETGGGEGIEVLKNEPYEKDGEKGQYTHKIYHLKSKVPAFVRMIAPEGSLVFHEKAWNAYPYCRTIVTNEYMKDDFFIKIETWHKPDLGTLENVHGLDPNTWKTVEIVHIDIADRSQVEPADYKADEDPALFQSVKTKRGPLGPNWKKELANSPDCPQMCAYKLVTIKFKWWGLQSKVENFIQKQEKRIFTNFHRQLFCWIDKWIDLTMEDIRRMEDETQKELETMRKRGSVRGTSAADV
UniProt P51178: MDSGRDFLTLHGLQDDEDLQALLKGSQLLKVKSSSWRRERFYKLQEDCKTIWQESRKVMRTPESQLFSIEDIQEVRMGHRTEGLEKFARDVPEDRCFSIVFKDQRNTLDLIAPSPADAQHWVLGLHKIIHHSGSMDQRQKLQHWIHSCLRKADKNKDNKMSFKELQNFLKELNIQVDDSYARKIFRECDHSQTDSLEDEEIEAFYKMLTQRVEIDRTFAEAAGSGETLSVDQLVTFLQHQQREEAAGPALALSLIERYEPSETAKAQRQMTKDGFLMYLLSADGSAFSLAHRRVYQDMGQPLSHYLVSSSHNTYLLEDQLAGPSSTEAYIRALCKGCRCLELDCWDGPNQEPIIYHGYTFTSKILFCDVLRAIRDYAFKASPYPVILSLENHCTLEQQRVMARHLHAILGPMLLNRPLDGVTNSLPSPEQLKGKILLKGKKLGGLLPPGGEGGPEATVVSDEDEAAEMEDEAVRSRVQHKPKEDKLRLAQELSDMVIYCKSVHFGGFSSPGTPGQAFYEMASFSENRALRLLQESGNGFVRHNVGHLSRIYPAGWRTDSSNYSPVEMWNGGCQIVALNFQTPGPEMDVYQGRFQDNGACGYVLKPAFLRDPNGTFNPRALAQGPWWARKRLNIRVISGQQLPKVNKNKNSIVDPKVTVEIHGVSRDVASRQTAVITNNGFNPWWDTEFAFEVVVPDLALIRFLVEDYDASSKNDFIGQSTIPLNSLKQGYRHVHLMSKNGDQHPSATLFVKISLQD
UniProt Q9NRX4: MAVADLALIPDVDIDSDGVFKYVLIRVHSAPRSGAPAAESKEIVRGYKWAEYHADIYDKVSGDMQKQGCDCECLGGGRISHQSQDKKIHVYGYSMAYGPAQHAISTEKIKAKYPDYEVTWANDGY
UniProt P14618, whole entry, looked up: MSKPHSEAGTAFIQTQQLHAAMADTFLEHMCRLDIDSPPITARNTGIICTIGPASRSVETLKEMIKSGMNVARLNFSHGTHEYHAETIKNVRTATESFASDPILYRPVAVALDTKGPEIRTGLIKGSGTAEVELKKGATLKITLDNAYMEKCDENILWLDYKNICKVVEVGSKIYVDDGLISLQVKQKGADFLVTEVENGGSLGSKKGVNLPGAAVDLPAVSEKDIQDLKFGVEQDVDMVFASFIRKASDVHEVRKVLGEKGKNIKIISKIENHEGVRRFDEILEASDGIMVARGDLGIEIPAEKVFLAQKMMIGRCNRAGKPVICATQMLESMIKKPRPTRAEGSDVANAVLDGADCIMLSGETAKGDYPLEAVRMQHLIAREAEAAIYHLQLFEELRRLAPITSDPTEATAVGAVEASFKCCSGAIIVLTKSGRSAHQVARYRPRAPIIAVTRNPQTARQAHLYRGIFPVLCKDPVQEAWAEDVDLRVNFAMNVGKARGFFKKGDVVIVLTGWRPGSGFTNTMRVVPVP
UniProt Q13526, whole entry, looked up: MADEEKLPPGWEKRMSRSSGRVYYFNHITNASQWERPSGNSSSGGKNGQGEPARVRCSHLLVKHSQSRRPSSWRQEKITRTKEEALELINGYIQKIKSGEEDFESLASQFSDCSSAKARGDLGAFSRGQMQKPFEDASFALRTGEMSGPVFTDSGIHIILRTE
UniProt Q86UU1: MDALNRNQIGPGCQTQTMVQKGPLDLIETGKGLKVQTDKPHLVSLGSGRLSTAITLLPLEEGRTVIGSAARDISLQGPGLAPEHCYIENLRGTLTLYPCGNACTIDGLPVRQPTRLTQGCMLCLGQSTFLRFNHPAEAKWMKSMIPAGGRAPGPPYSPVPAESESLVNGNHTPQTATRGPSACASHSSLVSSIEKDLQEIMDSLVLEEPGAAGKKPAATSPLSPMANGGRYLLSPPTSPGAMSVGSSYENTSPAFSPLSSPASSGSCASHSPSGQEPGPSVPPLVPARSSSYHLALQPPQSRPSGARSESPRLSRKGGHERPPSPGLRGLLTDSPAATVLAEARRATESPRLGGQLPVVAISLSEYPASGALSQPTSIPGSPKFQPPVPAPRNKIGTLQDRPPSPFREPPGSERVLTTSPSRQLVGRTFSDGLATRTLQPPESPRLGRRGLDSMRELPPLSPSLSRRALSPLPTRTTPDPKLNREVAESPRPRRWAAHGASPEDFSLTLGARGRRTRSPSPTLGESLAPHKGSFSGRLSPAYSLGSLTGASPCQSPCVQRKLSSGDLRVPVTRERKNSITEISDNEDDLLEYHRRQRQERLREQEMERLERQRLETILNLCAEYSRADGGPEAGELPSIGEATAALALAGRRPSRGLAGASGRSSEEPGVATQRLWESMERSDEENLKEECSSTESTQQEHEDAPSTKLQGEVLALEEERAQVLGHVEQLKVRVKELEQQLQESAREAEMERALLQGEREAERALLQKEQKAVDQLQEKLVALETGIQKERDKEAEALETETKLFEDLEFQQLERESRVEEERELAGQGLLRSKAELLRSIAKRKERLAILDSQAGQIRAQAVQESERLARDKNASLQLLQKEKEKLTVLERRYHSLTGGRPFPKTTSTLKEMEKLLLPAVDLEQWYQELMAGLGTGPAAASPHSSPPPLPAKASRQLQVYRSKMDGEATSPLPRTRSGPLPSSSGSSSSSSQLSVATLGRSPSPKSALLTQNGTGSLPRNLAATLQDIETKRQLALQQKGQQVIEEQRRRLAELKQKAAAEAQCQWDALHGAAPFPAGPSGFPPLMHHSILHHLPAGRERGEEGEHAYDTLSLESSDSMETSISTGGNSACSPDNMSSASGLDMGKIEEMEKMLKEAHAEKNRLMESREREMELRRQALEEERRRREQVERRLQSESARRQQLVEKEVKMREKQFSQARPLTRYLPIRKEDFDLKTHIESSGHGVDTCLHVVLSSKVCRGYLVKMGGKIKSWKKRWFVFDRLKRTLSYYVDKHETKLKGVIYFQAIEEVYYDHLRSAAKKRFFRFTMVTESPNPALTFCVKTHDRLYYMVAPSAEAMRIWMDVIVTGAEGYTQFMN
UniProt Q8TBF5: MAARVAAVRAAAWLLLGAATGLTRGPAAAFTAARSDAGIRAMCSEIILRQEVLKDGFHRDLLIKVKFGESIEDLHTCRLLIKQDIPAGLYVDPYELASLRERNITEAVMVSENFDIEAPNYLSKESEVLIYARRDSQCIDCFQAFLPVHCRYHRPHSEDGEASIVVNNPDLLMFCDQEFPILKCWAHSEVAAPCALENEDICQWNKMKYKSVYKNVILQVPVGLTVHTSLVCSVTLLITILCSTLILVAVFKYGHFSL
UniProt P00558: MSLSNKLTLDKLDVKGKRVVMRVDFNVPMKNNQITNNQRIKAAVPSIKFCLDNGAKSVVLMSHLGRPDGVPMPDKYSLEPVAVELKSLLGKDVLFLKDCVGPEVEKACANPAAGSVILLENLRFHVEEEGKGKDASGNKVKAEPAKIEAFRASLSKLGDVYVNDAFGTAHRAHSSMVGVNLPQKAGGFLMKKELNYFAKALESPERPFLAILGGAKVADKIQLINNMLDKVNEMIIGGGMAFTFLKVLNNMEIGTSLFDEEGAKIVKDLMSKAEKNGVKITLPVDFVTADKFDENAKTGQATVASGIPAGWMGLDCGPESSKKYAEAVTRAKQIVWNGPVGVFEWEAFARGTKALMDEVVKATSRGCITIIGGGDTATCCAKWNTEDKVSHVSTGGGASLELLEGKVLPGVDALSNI
UniProt P15735: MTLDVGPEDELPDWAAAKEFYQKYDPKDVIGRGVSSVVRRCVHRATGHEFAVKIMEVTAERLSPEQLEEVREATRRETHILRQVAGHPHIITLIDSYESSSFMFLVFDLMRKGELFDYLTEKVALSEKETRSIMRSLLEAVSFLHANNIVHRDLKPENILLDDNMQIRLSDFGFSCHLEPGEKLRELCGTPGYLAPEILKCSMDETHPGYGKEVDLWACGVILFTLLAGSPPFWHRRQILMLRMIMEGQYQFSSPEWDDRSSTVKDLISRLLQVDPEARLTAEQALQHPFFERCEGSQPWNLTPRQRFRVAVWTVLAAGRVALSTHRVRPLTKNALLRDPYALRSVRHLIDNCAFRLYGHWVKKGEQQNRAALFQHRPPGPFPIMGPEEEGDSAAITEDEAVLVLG

Columns and labels:
Assay in all cases: log2 fold change, soluble protein after heating vs DMSO (PISA); higher = thermal stabilisation; K562 cells, 10 uM, 30 min; active = over 0.2 and 3.5 SD of the protein, either way, in both replicates (recomputed)
[1] = compound: C1=CC=C(C=C1)[C@H](COC2=CC3=C(C=C2)NC(=O)N3)NC(=O)C4=CC=CN(C4=O)CC5=CC(=C(C=C5)F)F
Method in brief: (§1)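 Soluble protein was defined as the supernatant after 21,000xg for 90 min. It came from K562 cells at 2×10^6 cells/mL given 10 μM compound for 30 min, heated in aliquots for 3 min across 48°C-58°C, pooled, and extracted in PBS with 0.5% NP-40 at 4°C, and was quantified by TMTpro 16plex LC-MS/MS with equalised channel sums. Thermal stability against control samples, from duplicates, is reported as log2 fold change.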

[2] = compound: CC1=C(SC2=C1C(=N[C@H](C3=NN=C(N32)C)CC(=O)N)C4=CC=C(C=C4)Cl)C
Method in brief: as §1

[3] = compound: CC1=C2C(=CC=C1)N=C(N(C2=O)C3=CC=CC=C3C)CN4C=NC5=C(N=CN=C54)N
Method in brief: as §1

[4] = compound: Cc1sc2c(c1C)C(c1ccc(Cl)cc1)=N[C@@H](CC(=O)OC(C)(C)C)c1nnc(C)n1-2
Method in brief: as §1

[5] = compound: c1ccc([C@@H]2C[C@H]2NC2CCNCC2)cc1
Method in brief: as §1

Measured: log2 fold change

PITPNB isoform 3 (UniProt P48739)
inactive: [1] -0.003 | [2] 0.054 | [3] 0.043 | [4] -0.021 | [5] -0.028

PLCD1 isoform 2 (UniProt P51178)
inactive: [1] -0.021 | [2] 0.094 | [3] 0.004 | [4] 0.056 | [5] -0.06

PHPT1 (UniProt Q9NRX4)
inactive: [1] 0.005 | [2] 0.011 | [3] 0.091 | [4] -0.05 | [5] -0.016

PKM (UniProt P14618)
inactive: [1] -0.008 | [2] 0.032 | [3] 0.004 | [4] -0.005 | [5] 0.026

PIN1 (UniProt Q13526)
inactive: [1] 0.029 | [2] 0.02 | [3] 0.03 | [4] -0.033 | [5] -0.006

PHLDB1 isoform 2 (UniProt Q86UU1)
inactive: [1] -0.006 | [2] 0.073 | [3] 0.081 | [4] 0.008 | [5] 0.002

PIGX isoform 2 (UniProt Q8TBF5)
inactive: [1] 0.022 | [2] 0.177 | [3] -0.019 | [4] 0.054 | [5] 0.163

PGK1 (UniProt P00558)
inactive: [1] -0.012 | [2] 0.06 | [3] 0.034 | [4] -0.017 | [5] -0.047

PHKG2 (UniProt P15735)
inactive: [1] 0.028 | [2] -0.033 | [3] 0.013 | [4] 0.051 | [5] 0.026

2 records picked at random from those above:
PGK1 (UniProt P00558)
inactive: [1] -0.012 | [2] 0.06 | [3] 0.034 | [4] -0.017 | [5] -0.047

PHLDB1 isoform 2 (UniProt Q86UU1)
inactive: [1] -0.006 | [2] 0.073 | [3] 0.081 | [4] 0.008 | [5] 0.002
